No constants are given. Whether binding was seen depends on the method and setting. Some entries that bind do so weakly or less than the wild type.
Experiments:
[1] = target: T1, human collagen type I (human) (UniProt P02452+P08123); experiment: adhesion of CFSE-labelled cells to collagen-coated plates
[2] = target: T1, human collagen type I (human); experiment: adhesion of CFSE-labelled HT-1080 cells to collagen-coated plates

Chains of the proteins cited; added tags and fusions are not shown. Lines headed by an entry give the natural chain unless they say otherwise; changes in a name come on top.
UniProt P02452: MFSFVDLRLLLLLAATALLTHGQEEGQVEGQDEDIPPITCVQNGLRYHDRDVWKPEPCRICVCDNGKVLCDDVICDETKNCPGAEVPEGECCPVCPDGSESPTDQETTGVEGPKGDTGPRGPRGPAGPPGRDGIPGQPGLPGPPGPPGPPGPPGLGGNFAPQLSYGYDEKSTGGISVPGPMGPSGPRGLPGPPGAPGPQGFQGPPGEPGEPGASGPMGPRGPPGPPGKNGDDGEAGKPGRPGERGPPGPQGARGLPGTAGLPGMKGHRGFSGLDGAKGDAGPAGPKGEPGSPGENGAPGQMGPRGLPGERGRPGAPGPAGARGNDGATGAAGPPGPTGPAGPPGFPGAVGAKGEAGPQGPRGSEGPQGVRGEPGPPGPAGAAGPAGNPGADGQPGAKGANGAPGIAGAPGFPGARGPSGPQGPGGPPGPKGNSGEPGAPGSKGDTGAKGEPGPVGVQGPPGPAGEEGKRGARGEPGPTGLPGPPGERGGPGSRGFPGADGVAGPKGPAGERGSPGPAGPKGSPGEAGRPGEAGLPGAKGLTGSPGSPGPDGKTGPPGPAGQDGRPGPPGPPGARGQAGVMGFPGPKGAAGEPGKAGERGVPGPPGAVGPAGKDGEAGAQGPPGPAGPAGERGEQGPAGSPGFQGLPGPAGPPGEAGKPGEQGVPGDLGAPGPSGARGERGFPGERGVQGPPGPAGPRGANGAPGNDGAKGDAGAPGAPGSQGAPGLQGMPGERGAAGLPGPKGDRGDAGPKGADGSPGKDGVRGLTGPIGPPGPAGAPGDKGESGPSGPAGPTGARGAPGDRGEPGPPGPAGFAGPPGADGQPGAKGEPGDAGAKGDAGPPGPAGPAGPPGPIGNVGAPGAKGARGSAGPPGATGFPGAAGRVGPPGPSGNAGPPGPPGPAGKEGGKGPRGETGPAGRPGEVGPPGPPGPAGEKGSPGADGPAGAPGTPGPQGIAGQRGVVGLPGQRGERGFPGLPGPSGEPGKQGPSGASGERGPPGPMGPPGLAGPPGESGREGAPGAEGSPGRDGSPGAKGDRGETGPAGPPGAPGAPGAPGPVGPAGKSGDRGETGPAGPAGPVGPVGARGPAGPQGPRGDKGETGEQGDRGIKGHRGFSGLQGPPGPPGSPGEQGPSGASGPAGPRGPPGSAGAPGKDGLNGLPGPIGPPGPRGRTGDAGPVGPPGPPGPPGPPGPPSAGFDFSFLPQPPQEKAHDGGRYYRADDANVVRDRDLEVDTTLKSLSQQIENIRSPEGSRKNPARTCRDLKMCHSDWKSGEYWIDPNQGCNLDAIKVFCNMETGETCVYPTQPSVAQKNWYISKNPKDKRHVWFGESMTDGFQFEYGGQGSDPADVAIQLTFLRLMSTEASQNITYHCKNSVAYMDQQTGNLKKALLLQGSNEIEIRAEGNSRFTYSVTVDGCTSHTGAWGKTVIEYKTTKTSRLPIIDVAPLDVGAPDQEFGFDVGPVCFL
UniProt P08123: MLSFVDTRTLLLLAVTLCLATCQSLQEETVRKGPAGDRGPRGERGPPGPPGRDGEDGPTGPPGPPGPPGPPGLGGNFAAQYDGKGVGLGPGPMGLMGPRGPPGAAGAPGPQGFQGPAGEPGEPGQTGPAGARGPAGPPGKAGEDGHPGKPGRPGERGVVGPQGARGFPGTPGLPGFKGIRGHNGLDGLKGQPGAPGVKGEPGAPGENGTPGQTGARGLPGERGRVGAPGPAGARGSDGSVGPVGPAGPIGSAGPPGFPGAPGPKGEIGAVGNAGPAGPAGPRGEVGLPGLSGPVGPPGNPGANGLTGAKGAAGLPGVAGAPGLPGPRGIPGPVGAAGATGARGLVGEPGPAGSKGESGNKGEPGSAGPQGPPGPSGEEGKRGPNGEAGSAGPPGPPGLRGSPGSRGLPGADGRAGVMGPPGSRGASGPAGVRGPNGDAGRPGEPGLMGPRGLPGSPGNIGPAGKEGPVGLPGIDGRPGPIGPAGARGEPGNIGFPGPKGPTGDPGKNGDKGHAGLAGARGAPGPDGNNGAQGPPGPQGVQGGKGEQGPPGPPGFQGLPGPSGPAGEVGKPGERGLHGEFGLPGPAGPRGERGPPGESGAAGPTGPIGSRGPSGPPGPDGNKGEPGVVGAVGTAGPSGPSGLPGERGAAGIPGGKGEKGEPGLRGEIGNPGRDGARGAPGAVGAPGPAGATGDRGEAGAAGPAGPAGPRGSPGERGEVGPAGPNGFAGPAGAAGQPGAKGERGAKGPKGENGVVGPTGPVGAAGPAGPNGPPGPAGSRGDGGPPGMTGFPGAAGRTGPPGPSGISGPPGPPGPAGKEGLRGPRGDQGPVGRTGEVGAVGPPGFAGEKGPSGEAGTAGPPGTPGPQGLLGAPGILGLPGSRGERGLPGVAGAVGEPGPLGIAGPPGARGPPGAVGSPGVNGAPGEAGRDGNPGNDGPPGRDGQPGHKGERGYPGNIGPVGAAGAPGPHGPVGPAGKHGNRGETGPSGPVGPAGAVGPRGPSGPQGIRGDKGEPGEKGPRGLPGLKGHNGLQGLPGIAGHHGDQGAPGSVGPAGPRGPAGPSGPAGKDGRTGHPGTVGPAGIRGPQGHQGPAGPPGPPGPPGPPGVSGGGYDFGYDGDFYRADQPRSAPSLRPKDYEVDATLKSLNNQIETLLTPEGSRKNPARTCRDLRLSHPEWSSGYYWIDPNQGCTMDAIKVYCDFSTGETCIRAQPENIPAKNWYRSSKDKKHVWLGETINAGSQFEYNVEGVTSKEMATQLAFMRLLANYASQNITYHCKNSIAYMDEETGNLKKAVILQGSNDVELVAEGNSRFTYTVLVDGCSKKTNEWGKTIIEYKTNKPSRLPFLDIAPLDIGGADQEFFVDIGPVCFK
UniProt P17301: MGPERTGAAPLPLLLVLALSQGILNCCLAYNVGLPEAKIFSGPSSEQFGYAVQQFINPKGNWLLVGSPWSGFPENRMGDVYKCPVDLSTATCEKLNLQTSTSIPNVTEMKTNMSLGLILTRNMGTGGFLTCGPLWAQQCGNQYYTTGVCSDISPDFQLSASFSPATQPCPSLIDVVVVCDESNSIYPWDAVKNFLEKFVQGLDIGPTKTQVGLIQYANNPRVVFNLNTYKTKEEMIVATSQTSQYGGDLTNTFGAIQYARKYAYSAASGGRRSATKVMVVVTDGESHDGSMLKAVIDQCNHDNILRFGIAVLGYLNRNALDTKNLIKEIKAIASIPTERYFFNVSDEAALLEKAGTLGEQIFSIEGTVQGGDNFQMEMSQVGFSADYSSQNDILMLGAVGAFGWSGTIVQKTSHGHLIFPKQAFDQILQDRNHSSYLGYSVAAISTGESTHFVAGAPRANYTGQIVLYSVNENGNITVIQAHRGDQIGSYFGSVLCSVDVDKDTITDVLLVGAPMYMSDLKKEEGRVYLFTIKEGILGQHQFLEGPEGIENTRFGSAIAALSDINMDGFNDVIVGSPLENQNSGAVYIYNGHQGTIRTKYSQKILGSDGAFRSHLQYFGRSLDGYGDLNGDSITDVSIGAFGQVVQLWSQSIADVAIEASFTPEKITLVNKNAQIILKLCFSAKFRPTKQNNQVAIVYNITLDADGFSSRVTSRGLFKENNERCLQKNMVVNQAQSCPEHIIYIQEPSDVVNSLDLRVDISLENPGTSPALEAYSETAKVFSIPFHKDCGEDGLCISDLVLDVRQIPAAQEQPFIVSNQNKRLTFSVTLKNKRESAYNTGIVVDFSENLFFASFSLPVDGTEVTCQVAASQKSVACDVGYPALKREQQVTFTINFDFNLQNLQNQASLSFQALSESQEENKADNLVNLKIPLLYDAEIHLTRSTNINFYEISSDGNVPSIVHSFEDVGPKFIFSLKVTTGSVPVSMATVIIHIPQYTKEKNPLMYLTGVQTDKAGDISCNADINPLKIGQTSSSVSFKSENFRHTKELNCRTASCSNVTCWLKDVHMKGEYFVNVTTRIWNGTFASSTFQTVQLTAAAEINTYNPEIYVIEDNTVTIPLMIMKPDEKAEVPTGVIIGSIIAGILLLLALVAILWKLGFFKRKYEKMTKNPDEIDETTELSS

For “human α2β1 integrin (VLA-2) expressed on human cancer cell lines (from UniProt P17301 30-1181; P05556 21-798) (receptor)”, the binding [1] was “binds” and the binding [2] was “binds”.

From patent US20100158904A1 (GLENMARK PHARMACEUTICALS S A, published 2010)
